PubChem BioAssay AID1259264 – Sanger Institute, 2017
Test: 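Kinase-wide knock-down to find genes that strengthen targeted drug effects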 (primary screen). System: CL40 human colorectal cancer cells. Knock-down reagent: siRNA pool against human genes. Conditions: DMSO, or an anchor drug: BYL719 at 1 µM, cetuximab at 5 µg/ml, or trametinib at 10 nM. Measurement: 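Viability as a fraction of non-targeting pool control (replicates averaged), control-based robust z-score, plus averaged synergy for each drug: BYL719 1 µM, cetuximab 5 µg/ml, trametinib 10 nM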. Reading the numbers: robust z-score, siRNA alone: higher = more viable cells. Hit rule: 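a gene counts as essential when knock-down without drug gives a robust z-score below -3, meaning fewer cells; synergy scores play no part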. Calls: active = essential (lowers viability alone); inactive = not essential.
Shown is an unselected part of 794 deposited reagents. 15 of them (1.9%) count as active. 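Calls rest on knock-down alone at z-score below -3; synergy scores with the three drugs do not decide them.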 Further read-outs or replicates are left out here. No sequences are given here. Not stated in the record: the amount of reagent, the time to read-out.

target | robust z-score, siRNA alone | Call
AKT1 (AKT serine/threonine kinase 1) | 0.0177 | inactive
MAP4K1 (mitogen-activated protein kinase kinase kinase kinase 1) | -1.78 | inactive
MAP3K15 (mitogen-activated protein kinase kinase kinase 15) | 0.539 | inactive
PTK2 (protein tyrosine kinase 2) | 0.539 | inactive
ABL1 (ABL proto-oncogene 1, non-receptor tyrosine kinase) | 0.539 | inactive
CAMK2N1 (calcium/calmodulin dependent protein kinase II inhibitor 1) | -2.11 | inactive
ADK (adenosine kinase) | -0.261 | inactive
MAPK15 (mitogen-activated protein kinase 15) | 0.275 | inactive
ULK1 (unc-51 like autophagy activating kinase 1) | -0.0348 | inactive
PRKAA2 (protein kinase AMP-activated catalytic subunit alpha 2) | -0.228 | inactive
ADPGK (ADP dependent glucokinase) | -0.858 | inactive
IRAK1 (interleukin 1 receptor associated kinase 1) | -0.0735 | inactive
TAOK3 (TAO kinase 3) | 0.387 | inactive
MKNK2 (MAPK interacting serine/threonine kinase 2) | 0.539 | inactive
PRKAR1A | 0.539 | inactive
MAP2K3 (mitogen-activated protein kinase kinase 3) | 0.539 | inactive
PSKH1 (protein serine kinase H1) | 0.539 | inactive
PIP5K1A (phosphatidylinositol-4-phosphate 5-kinase type 1 alpha) | -0.821 | inactive
STK17A (serine/threonine kinase 17a) | 0.481 | inactive
TWF2 (twinfilin actin binding protein 2) | 0.328 | inactive
DLG1 (discs large MAGUK scaffold protein 1) | 0.118 | inactive
CDKN1B (cyclin dependent kinase inhibitor 1B) | 0.539 | inactive
MAPK4 (mitogen-activated protein kinase 4) | 0.539 | inactive
LATS1 (large tumor suppressor kinase 1) | -0.177 | inactive
MAP3K2 (mitogen-activated protein kinase kinase kinase 2) | 0.538 | inactive
ULK4 (unc-51 like kinase 4) | -0.66 | inactive
TAOK2 (TAO kinase 2) | 0.0473 | inactive
VRK3 (VRK serine/threonine kinase 3) | 0.539 | inactive
ALPK2 (alpha kinase 2) | 0.354 | inactive
PAK5 (p21 (RAC1) activated kinase 5) | -1.2 | inactive
PRKAR2B | 0.539 | inactive
PIK3CB | -0.712 | inactive
PTK2B (protein tyrosine kinase 2 beta) | 0.539 | inactive
RELA (RELA proto-oncogene, NF-kB subunit) | 0.539 | inactive
SYK (spleen associated tyrosine kinase) | -3.15 | active
CMPK1 (cytidine/uridine monophosphate kinase 1) | 0.539 | inactive
MASTL (microtubule associated serine/threonine kinase like) | -0.144 | inactive
PRKCA (protein kinase C alpha) | -1.87 | inactive
FGFR2 (fibroblast growth factor receptor 2) | 0.539 | inactive
NR2F2 (nuclear receptor subfamily 2 group F member 2) | 0.334 | inactive
PIP5KL1 (phosphatidylinositol-4-phosphate 5-kinase like 1) | 0.539 | inactive
PRKACB (protein kinase cAMP-activated catalytic subunit beta) | 0.539 | inactive
NTN4 (netrin 4) | 0.0669 | inactive
STK3 (serine/threonine kinase 3) | 0.539 | inactive
CDK18 (cyclin dependent kinase 18) | -3.21 | active
SKAP1 (src kinase associated phosphoprotein 1) | 0.539 | inactive
TLK1 (tousled like kinase 1) | 0.426 | inactive
PIK3C2A | -0.307 | inactive
CDK6 (cyclin dependent kinase 6) | -0.421 | inactive
PRKCI (protein kinase C iota) | -0.317 | inactive
